Amino acid sequences for entries named in this document (tags omitted). A change or cut given only in a name is not applied to a line headed by its entry.
UniProt O94782: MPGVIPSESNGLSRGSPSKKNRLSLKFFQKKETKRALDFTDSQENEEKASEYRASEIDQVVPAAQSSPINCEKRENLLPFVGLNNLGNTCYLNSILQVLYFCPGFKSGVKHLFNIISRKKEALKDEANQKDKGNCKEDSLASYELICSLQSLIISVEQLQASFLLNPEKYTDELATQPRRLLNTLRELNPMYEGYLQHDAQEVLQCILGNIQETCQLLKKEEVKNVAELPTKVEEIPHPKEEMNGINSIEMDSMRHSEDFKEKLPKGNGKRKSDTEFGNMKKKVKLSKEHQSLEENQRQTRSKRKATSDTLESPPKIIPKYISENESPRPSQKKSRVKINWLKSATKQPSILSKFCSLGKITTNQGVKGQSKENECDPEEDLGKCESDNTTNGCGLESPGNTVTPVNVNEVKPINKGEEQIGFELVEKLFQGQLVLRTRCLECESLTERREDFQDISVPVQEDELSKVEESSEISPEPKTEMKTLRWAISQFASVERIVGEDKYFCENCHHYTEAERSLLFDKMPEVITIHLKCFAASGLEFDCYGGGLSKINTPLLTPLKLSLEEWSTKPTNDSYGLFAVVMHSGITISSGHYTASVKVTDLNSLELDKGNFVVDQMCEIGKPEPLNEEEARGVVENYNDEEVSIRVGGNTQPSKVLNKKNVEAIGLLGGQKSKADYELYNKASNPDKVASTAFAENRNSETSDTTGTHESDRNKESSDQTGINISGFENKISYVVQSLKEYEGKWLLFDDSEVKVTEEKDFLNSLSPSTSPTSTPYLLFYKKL

Out of some 390,000 compounds screened, about 910 (0.23%) were called active. The inconclusive results got no clear call from the source; some entries with a clear call stand among them for comparison. Calls come from the whole dose curve; as a rule, active = well fitted inhibition curve with a large enough effect; inconclusive = small, poorly fitted or top-dose-only effect; inactive = no such curve, though single readings can be large or run the other way. Potencies beside an inconclusive call are fits to weak or partial responses and may not hold up.
Each compound was assayed against Ubiquitin carboxyl-terminal hydrolase 1 (Homo sapiens) (UniProt O94782) (assay: Inhibitors of USP1/UAF1: Primary Screen). Settings: recombinant USP1/UAF1, Ub-Rhodamine cleavage fluorescence; series mostly up to 57.1 µM.
Procedure, shortened: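 In this screen, compounds sit with the deubiquitinase complex (1nM) for 15 min at room temperature before Ub-Rho is added at 150nM final. Fluorescence rise is then followed for 6 reads every 60 seconds.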
With `CCOc1ccccc1CNC(=O)Cc1ccc(NC(=O)N2CCCCc3ccccc32)cc1` the Potency was inconclusive: 44.7 µM [inhibitor, partial curve].
For `O=C1C(O)=C(O)C(=O)c2ccccc21`, the Potency was active: 15.8 µM.
In the case of `CCN(CC)S(=O)(=O)c1cccc(C(=O)N[C@H](C(=O)NC2=NCCS2)C(C)C)c1`, the Potency is reported as inconclusive: 12.6 µM [inhibitor, partial curve].
For `Cc1ccc(CSC2=CS(=O)(=O)c3ccccc3N2)cc1`, the Potency was “inactive”.
In the case of `CN(C)c1ccc(NC(=O)Nc2csc3ccccc23)cc1`, the Potency is reported as inconclusive: 31.6 µM [inhibitor, partial curve].
With `COc1ccc(NC(=O)C(C)N(c2ccc(C)cc2)S(C)(=O)=O)cc1` (stereo not given) the Potency was “inactive”.
In the case of `CCOC(=O)c1ccc(NC(=O)C2CC(=O)NC(=Nc3ccc(C)c(C)c3)S2)cc1` (stereo not given), the Potency is reported as inconclusive: 35.5 µM [inhibitor, partial curve].
`O=C(Nc1cc(S(=O)(=O)Nc2ccccc2F)ccc1Cl)c1ccc(F)cc1F` was tested, and the Potency was inconclusive: 50.1 µM [inhibitor, partial curve, poor fit].
For `CCCN(CC1CC1)C(=O)COC(=O)c1oc2ccc(OCC)cc2c1C`, the Potency was inconclusive: 50.1 µM [inhibitor, partial curve, poor fit].
For `Cc1nnc2sc(-c3ccc(NC(=O)c4ccc(-c5ccc(Cl)cc5Cl)o4)cc3)nn12`, the Potency was inconclusive: 35.5 µM [inhibitor, single point].
For `CC(NC(=O)c1ccccc1NC(=O)c1ccccc1)C(=O)N1CCOCC1` (stereo not given), the Potency was “inactive”.
In the case of `C=CCn1cc(/C=C/c2cc[n+](C)cc2)c2ccccc21`, the Potency is reported as active: 31.6 µM.
For `CC(C)NCC(O)COc1ccc(Br)cc1` (stereo not given), the Potency was inconclusive: 28.2 µM [inhibitor, single point].
For `COc1ccc(NC(=O)c2cc3c(Cl)nc4ccccc4c3s2)cc1OC`, the Potency was “inactive”.
In the case of `CCOC(=O)N1CCN(C(=O)c2ccc(CS(=O)(=O)c3c(Cl)cccc3Cl)o2)CC1`, the Potency is reported as inconclusive: 0.794 µM [inhibitor, full curve, poor fit].
`Cc1cccc(C)c1NC(=O)CN1C(=O)CCSc2ccc(S(=O)(=O)N3CCCC3)cc21` was tested, and the Potency was inconclusive: 39.8 µM [inhibitor, partial curve, poor fit].
With `CCN(Cc1nc(-c2cccc(C)c2)no1)S(=O)(=O)c1ccc(C)cc1` the Potency was “inactive”.
In the case of `COCCCN(Cc1ccco1)C(=O)c1cc2c(s1)-c1ccccc1OC2`, the Potency is reported as “inactive”.
With `O=C1CC(Sc2nnnn2-c2ccccc2)C(=O)N1c1cccc(Cl)c1` (stereo not given) the Potency was “inactive”.
In the case of `CC(=O)c1ccc(N2CCN(c3ncnc4c3c(-c3ccccc3)cn4-c3ccc(C)c(Cl)c3)CC2)cc1`, the Potency is reported as “inactive”.
`CCN(Cc1ccccc1)C(=O)Cc1c[nH]c2ccccc12` was tested, and the Potency was inconclusive: 0.891 µM [inhibitor, full curve].
`C=C(C)Cn1c(SCC(=O)Nc2ccccc2C)nc2sc3c(c2c1=O)CCCC3` was tested, and the Potency was inconclusive: 44.7 µM [inhibitor, partial curve, poor fit].
In the case of `COc1ccc(-c2nc(SCC(=O)NC3CCCC3)c(-c3ccc(OC)cc3)[nH]2)cc1`, the Potency is reported as inconclusive: 39.8 µM [inhibitor, single point].
`COc1ccc(CNC(=O)Cn2nc(C)n3cccc3c2=O)cc1` was tested, and the Potency was inconclusive: 44.7 µM [inhibitor, partial curve].
In the case of `O=C(Nc1cc2c(cc1Cl)-c1ccc([N+](=O)[O-])cc1C2=NO)C(F)(F)F`, the Potency is reported as “inactive”.
With `Cc1c(Cl)cccc1-n1ncc(C(=O)N2CCN(C)CC2)c1C1CCN(C(=O)OC(C)(C)C)CC1` the Potency was “inactive”.
In the case of `Cc1ccc(C2C=C(c3ccccc3)Nc3nc(N4C(=O)CCC4=O)nn32)cc1` (stereo not given), the Potency is reported as inconclusive: 35.5 µM [inhibitor, partial curve].
With `CCc1nnc(NC(=O)CN2C(=O)c3ccccc3S2(=O)=O)s1` the Potency was inconclusive: 8.91 µM [inhibitor, single point].
With `COc1ccccc1CNC(=O)CN1C(=O)CCc2cc(S(=O)(=O)N3CCCCC3)ccc21` the Potency was “inactive”.
`C/C(=N\NC(=O)c1ccncc1)c1cccc(NC(=O)c2ccc(C(C)(C)C)cc2)c1` was tested, and the Potency was inconclusive: 44.7 µM [inhibitor, partial curve].
In the case of `C#CCn1c(C)cc(C)c(S(=O)(=O)c2ccccc2)c1=O`, the Potency is reported as inconclusive: 50.1 µM [inhibitor, single point].
In the case of `COc1ccc(CCNC(=O)Cn2cc(C(=O)c3ccc(Cl)cc3)c(=O)c3ccc(C)nc32)cc1OC`, the Potency is reported as “inactive”.
`CC1(C)Cc2ccccc2C2CC(O)C(=O)N21` (stereo not given) was tested, and the Potency was inconclusive: 11.2 µM [inhibitor, partial curve].
For `COc1cc(/C=C2\C(=N)N3N=C(C)SC3=NC2=O)cc(OC)c1OCCOc1ccccc1C`, the Potency was “inactive”.
With `COc1ccc2c(c1)n([O-])c1c([n+]2=O)CCC1` the Potency was inconclusive: 50.1 µM [inhibitor, partial curve].
With `CC(C)C[C@@H](CNCC(=O)[C@H](Cc1c[nH]c2ccccc12)NC(=O)c1[nH]cnc1C(=O)N[C@@H](C)CN)NC(=O)c1nc[nH]c1C(=O)N[C@@H](CC(=O)O)C(=O)O` the Potency was “inactive”.
In the case of `O=C(COC(=O)c1cc2ccccc2cc1O)NCc1ccccc1`, the Potency is reported as inconclusive: 56.2 µM [inhibitor, partial curve, poor fit].
In the case of `Cc1ccc(C(=O)Nc2ncc(Cc3ccc(F)cc3)s2)o1`, the Potency is reported as inconclusive: 35.5 µM [inhibitor, partial curve].
With `CCOc1ccccc1-c1nc(CN2CCN(C(=O)c3ccco3)CC2)c(C)o1` the Potency was “inactive”.
With `O=C(CN1C(=O)c2ccccc2S1(=O)=O)NCc1ccco1` the Potency was inconclusive: 8.91 µM [inhibitor, partial curve, poor fit].
In the case of `CN(C)S(=O)(=O)c1ccc(NC(=O)CN2CCCCCC2)cc1`, the Potency is reported as inconclusive: 17.8 µM [inhibitor, partial curve].
`CCOC(=O)c1sc(=NC(=O)C2CC2)n(C)c1C` was tested, and the Potency was inconclusive: 2.24 µM [inhibitor, partial curve].
`CCOC(=O)N1CCN(C(=O)c2ccc3c(c2)N(Cc2ccccc2F)C(=O)c2ccccc2S3=O)CC1` (stereo not given) was tested, and the Potency was inconclusive: 7.94 µM [inhibitor, partial curve].
In the case of `COCCn1c(C)cc(O)c(C(c2ccccc2)N2CCC(C)CC2)c1=O` (stereo not given), the Potency is reported as inconclusive: 35.5 µM [inhibitor, partial curve, poor fit].
For `CCOc1ccc2c(c1)c1nnc(SCC3CCCO3)nc1n2C` (stereo not given), the Potency was “inactive”.
For `C[C@H](CO)N1C[C@H](C)[C@H](CN(C)Cc2ccc(C(=O)O)cc2)OCc2ccccc2-c2c(n(C)c3ccccc23)C1=O`, the Potency was inconclusive: 35.5 µM [inhibitor, partial curve].
In the case of `O=C(CN(CC1CCCO1)C(=O)CNS(=O)(=O)c1ccc(F)cc1)NCc1ccc(F)cc1` (stereo not given), the Potency is reported as inconclusive: 6.31 µM [inhibitor, single point].
`CCOC(=O)C1=C(O)/C(=C/c2ccc(OCC(=O)O)c(OCC)c2)SC1=Nc1ccc(C)cc1` was tested, and the Potency was inconclusive: 39.8 µM [inhibitor, partial curve, poor fit].
`COC(=O)[C@@]12CCCN1[C@H](c1ccc(-c3ccc(OC)cc3)cc1)[C@@H]1C(=O)N(C)C(=O)[C@@H]12` was tested, and the Potency was inconclusive: 50.1 µM [inhibitor, partial curve, poor fit].
`Cc1ccc(OC(=S)Nc2ccc(O)cc2)cc1` was tested, and the Potency was “inactive”.
In the case of `CCOc1cc(CNS(=O)(=O)c2ccc3c(c2)CC(=O)N3C)cc(OCC)c1OCC`, the Potency is reported as inconclusive: 1.78 µM [inhibitor, partial curve, poor fit].
In the case of `O=C(Nc1ccc(C(=O)N2CCN(c3ccc(F)cc3)CC2)cc1)c1nsc2ccccc12`, the Potency is reported as inconclusive: 39.8 µM [inhibitor, partial curve, poor fit].
With `CCCOc1ccccc1-c1nc(SCC(=O)c2ccccc2)n[nH]1` the Potency was inconclusive: 0.282 µM [inhibitor, full curve, poor fit].
For `COc1ccc(C)cc1Nc1nc2c(S(=O)(=O)c3cccc(Cl)c3)nnn2c2ccsc12`, the Potency was “inactive”.
With `Cc1cc(NC(=O)Nc2c[nH]c(=O)[nH]c2=O)ccc1Br` the Potency was inconclusive: 44.7 µM [inhibitor, partial curve, poor fit].
`COc1ccc(N(C(=O)c2ccco2)C(C(=O)NC2CCCC2)c2ccncc2)cc1` (stereo not given) was tested, and the Potency was inconclusive: 44.7 µM [inhibitor, single point].
With `CCOc1ccc(CNC(=O)c2ccc(Sc3ccc(Cl)cc3)c(NC(C)=O)c2)cc1` the Potency was inconclusive: 50.1 µM [inhibitor, partial curve, poor fit].
For `O=C1CCCc2c1cc(-c1ccccc1)n2-c1ccc(O)cc1`, the Potency was “inactive”.
For `COc1ccc(NC(=O)c2ccc(CN3C(=O)CCn4nc(C)cc43)cc2)c(OC)c1`, the Potency was “inactive”.
With `COc1ccc(-n2c(SCC(=O)NCc3cccs3)nnc2-c2ccoc2C)cc1` the Potency was inconclusive: 44.7 µM [inhibitor, single point].
In the case of `COc1ccc(C(=O)CNc2ccccc2C#N)cc1`, the Potency is reported as inconclusive: 39.8 µM [inhibitor, single point].
With `COc1ccc(C2CC(=O)Nc3c2c(=O)nc2c(C)cccn32)cc1OC` (stereo not given) the Potency was inconclusive: 44.7 µM [inhibitor, partial curve, poor fit].
In the case of `Cc1ccccc1C(=O)c1cccn1CC(=O)NCc1ccc(Cl)cc1`, the Potency is reported as inconclusive: 1.26 µM [inhibitor, partial curve, poor fit].
`Cc1cc(N2CCN(c3ccc(F)cc3)CC2)nc2cc(O)ccc12` was tested, and the Potency was inconclusive: 39.8 µM [inhibitor, partial curve].
For `Cn1nc(-c2ccccc2)cc1NC(=O)Nc1ccccc1F`, the Potency was inconclusive: 50.1 µM [inhibitor, partial curve, poor fit].
Note: nearly all actives have a fitted effect of over 60% in size.
Potency is the fitted concentration of half-maximal effect.
